The values that follow come from paper PMC3798694.

By UniProt entry, the sequences of proteins in these tests, tags left out.
UniProt A0ACD7PP40: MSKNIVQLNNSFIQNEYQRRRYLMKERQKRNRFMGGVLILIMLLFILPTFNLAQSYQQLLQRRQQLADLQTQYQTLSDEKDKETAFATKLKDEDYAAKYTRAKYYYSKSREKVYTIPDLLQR

The target of the experiment is T1, PBP2x-S (Strep-tagged full length PBP2x of Streptococcus pneumoniae) (S. pneumoniae R6) (UniProt P59676).
T1 sequence: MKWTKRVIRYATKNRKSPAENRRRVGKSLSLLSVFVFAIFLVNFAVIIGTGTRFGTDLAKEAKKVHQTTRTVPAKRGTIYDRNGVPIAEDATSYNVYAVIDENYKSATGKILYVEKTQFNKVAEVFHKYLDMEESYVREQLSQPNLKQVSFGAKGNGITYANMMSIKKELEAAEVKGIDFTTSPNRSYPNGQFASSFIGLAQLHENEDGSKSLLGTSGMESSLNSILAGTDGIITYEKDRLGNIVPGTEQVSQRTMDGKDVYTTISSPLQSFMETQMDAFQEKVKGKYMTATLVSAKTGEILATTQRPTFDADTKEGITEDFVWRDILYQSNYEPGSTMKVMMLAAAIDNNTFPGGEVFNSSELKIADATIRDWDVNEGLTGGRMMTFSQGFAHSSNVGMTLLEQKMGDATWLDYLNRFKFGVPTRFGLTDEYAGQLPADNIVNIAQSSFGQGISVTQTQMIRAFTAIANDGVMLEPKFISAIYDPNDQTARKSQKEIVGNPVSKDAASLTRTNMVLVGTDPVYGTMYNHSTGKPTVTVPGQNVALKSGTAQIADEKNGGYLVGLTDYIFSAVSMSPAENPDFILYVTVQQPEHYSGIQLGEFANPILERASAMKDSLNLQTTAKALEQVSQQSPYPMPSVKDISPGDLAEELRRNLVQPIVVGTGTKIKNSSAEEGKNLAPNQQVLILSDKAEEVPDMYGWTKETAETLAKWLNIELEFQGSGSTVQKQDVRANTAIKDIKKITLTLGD
The experiment can be described thus: pull-down; Proteins co-expressed in one E. coli strain; DDM-solubilised membranes or Ni-NTA eluate; Strep-tagged protein held on Strep-Tactin (first or second step), eluted with 2.5 mM desthiobiotin; HNG buffer, 0.3 mM DDM; Coomassie SDS-PAGE, Western blot. For orientation: In western blotting, separated proteins are transferred to a membrane and probed.

No constants are given. Whether binding was seen depends on the method and setting. In cells and extracts the contact can be indirect. Some binding calls cover weakened binding; strength is not graded here. Sequences can lack the tags named with a protein.

For “DivIC (untagged full length DivIC of Streptococcus pneumoniae) (from UniProt A0ACD7PP40 1-122)”, the binding entry is listed as “binds”.

B1: FtsL (untagged full length FtsL of Streptococcus pneumoniae) (protein, UniProt Q8DR70 1-105)
chain: MAEKMEKTGQILQMQLKRFSRVEKAFYFSIAVTTLIVAISIIFMQTKLLQVQNDLTKINAQIEEKKTELDDAKQEVNELLRAERLKEIANSHDLQLNNENIRIAE
Take B1: the binding result was “binds”.
